In all, about 220,000 compounds went through this assay and about 770 (0.35%) were called active. The inconclusive results got no clear call from the source; some entries with a clear call stand among them for comparison. Cut-off read from the data, not from the text of the source: active = binding response below about 49% or above about 150%; inconclusive = no clear call, values can overlap the other calls; inactive = in between.
biological target: Guanine nucleotide-binding protein G(o) subunit alpha (Homo sapiens) (UniProt P09471); test: RGS7-Galphao binding modulators, primary screen, biochemical, multiplexed bead flow cytometry (AID 1439); details: at 10 µM, actives lie on both sides;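 note: fluorescent Galphao held in activated GDP-AlF4 state binding bead-coupled RGS7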

Sequences of proteins named here, by UniProt entry; tags and fusion partners are left off.
UniProt P09471, whole entry, looked up: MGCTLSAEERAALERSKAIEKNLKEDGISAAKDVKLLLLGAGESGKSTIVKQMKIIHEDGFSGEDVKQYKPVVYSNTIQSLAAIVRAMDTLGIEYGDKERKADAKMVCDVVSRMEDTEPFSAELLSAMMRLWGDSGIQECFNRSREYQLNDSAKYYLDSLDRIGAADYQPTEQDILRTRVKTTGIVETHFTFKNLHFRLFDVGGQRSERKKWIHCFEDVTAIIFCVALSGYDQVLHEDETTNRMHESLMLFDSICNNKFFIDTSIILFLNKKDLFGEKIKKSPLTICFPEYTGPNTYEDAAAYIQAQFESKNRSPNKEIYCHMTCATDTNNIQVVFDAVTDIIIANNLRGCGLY

Row | SMILES | binding response (% of control)
1 | Cc1onc(-c2ccccc2Cl)c1C(=O)NC(=S)Nc1ccc(C(C)C)cc1 | inconclusive: 97.8%
2 | N#CC(C(N)=O)=C1CCCCC1 | inconclusive: 104%
3 | COc1cccc(N2C(=O)C3ON(c4ccccc4)C(c4cccs4)C3C2=O)c1 (stereo unspecified) | inactive: 98.4%
4 | CC(=O)Nc1ccc(CN2CCCC(CO)(Cc3cccc(Cl)c3)C2)cc1 (stereo unspecified) | inconclusive: 81%
5 | CCN(CC)CCC(c1cc(OC)c(OC)c(OC)c1)c1c(O)cc(OC)cc1OC (stereo unspecified) | inconclusive: 34.9%
6 | CC(=O)NC(=S)Nc1ccc(NC(=S)NC(=O)c2ccc([N+](=O)[O-])cc2)cc1 | inconclusive: 94.7%
7 | Cc1onc(-c2ccccc2)c1NC(=O)N(CCC(=O)O)Cc1ccccc1 | inconclusive: 122%
8 | COc1cccc(NC(=O)Nc2nnc(-c3ccccc3SCc3ccccc3)s2)c1 | inactive: 101%
9 | Cn1cnc(Sc2ncnc3nc[nH]c23)c1[N+](=O)[O-] | inconclusive: 103%
10 | CSc1nnc2c(n1)OC1(Nc3ccccc3-2)C(=O)Nc2ccccc21 (stereo unspecified) | inconclusive: 92.2%
11 | O=C(C1CCCN(S(=O)(=O)c2cccc3cccnc23)C1)N1CCN(c2ccc(F)cc2)CC1 (stereo unspecified) | inactive: 99.1%
12 | Cc1ccc(NC(=O)COC(=O)[C@H](C)NC(=O)c2ccccc2)cc1S(=O)(=O)N1CCOCC1 | inconclusive: 96.1%
13 | C=CCSC1=C(C#N)C(c2ccccc2Cl)C(C(=O)c2cccs2)C(O)(C(F)(F)F)N1 (stereo unspecified) | inactive: 105%
14 | O=C1NC(=S)CN1c1ccccc1 | inconclusive: 88%
15 | Cc1nn2c(NCc3cccnc3)c3c(nc2c1-c1ccccc1)CCC3 | inconclusive: 96.9%
16 | COc1c(C)cc(C(=O)C2CCCN(C(=O)c3ccc4cc[nH]c4c3)C2)cc1C (stereo unspecified) | inactive: 116%
17 | CCCCOc1ccc(NC(=O)Nc2nnc(C)s2)cc1 | inconclusive: 71.1%
18 | Cc1ccsc1-c1nc(C(N)=O)c2[nH]c(=O)n(-c3ccc(Cl)cc3)c2n1 | inactive: 101%
19 | CCOC(=O)c1nn(-c2ccccc2)c(=O)cc1SC(C)C | inactive: 102%
20 | O=C(CC1SC(=Nc2ccc(OC(F)F)cc2)N(CCN2CCOCC2)C1=O)Nc1ccccc1 (stereo unspecified) | inconclusive: 91.4%
21 | C/C(CC(=O)N1CCCC1)=N\NC(=O)c1cc2ccccc2cc1O | inconclusive: 110%
22 | O=C(NCC1CCN(S(=O)(=O)c2ccccc2)CC1)Nc1ccccc1 | inconclusive: -44.3%

Row | SMILES | binding response (% of control)
23 | C[C@@H]1CC=C[C@H]2[C@H]1C(=O)N(Cc1ccccc1)[C@H]2c1ccc2ccccc2c1 | inconclusive: 90.1%
24 | CC(=O)c1cc2ccc(O)cc2oc1=O | inconclusive: 74.6%
25 | OC(C#CCN1CCCCCC1)(c1ccccc1)c1cccnc1 (stereo unspecified) | inconclusive: -482%
26 | NC(=O)C1CCN(C(=O)COc2ccc(Nc3ccccc3)cc2)CC1 | inconclusive: 79.4%
27 | Cc1ccc(NC(=O)CCc2nc3ccccc3[nH]2)cc1C | inconclusive: 100%
28 | CC(=O)N(c1cccc(Br)c1)c1nc(C)cc(C)c1C#N | inconclusive: 111%
29 | COc1cc(NC(=S)NCCc2ccccc2)c(OC)cc1NC(=O)C(C)C | inconclusive: 110%
30 | S=C(NC1CC2CCC1C2)N1CCN(c2cccc(Cl)c2)CC1 (stereo unspecified) | inconclusive: 116%
31 | CCOc1ccc(N2C(=O)Nc3ccccc3C2(O)C(=O)NCc2ccc(F)cc2)cc1 (stereo unspecified) | inconclusive: 104%
32 | O=C1CC(c2ccccc2F)c2c(c3ccccc3[nH]c2=O)O1 (stereo unspecified) | inconclusive: 89.4%
33 | COc1ccc(NC(C)=O)cc1NC(C)c1nc2sc(C)c(C)c2c(=O)[nH]1 (stereo unspecified) | inconclusive: 102%
34 | CC(C)n1c2ccccc2c2nnc(SCC(=O)Nc3ccccc3C(=O)O)nc21 | inactive: 95.9%
35 | COCCN=c1scc(-c2ccco2)n1/N=C/c1ccc(O)c(O)c1O | inconclusive: 63.1%
36 | CC1CCN(CC(=O)Nc2ccc(S(=O)(=O)NC3CC3)cc2)CC1 | inconclusive: 114%
37 | O=c1c(OC2OC(CO)C(O)C(O)C2OC2OC(CO)C(O)C(O)C2O)c(-c2ccc(O)cc2)oc2cc(O)cc(O)c12 (stereo unspecified) | inconclusive: 22.4%
38 | CC(=O)c1nnn(-c2ccc(Cl)cc2C#N)c1C | inconclusive: -13.3%
39 | Cc1ccc(S(=O)(=O)NCCC(=O)Nc2nccs2)cc1 | inconclusive: 112%
40 | Cc1cc(NC(=O)CSc2ccc3nnc(CCNC(=O)c4ccccc4)n3n2)no1 | inconclusive: 92.2%
41 | CCOc1cccc(/C=C/c2ccc3ccccc3n2)c1OC(C)=O | inconclusive: 101%
42 | C/C(=N\Nc1ccc(C(=O)O)cc1)c1ccc(-n2ccnc2)cc1 | inconclusive: 103%
43 | Cc1oc(C)c2c(=O)ccc3c(c12)OC(N)=C(C#N)C3c1ccccc1Cl (stereo unspecified) | inactive: 97.1%
44 | COc1ccc(/C=C2\C(=O)c3ccccc3OC2c2ccccc2)cc1 (stereo unspecified) | inconclusive: 95.4%

Of the compounds above, 3 have a COOH group.
Row | SMILES | binding response (% of control)
7 | Cc1onc(-c2ccccc2)c1NC(=O)N(CCC(=O)O)Cc1ccccc1 | inconclusive: 122%
34 | CC(C)n1c2ccccc2c2nnc(SCC(=O)Nc3ccccc3C(=O)O)nc21 | inactive: 95.9%
42 | C/C(=N\Nc1ccc(C(=O)O)cc1)c1ccc(-n2ccnc2)cc1 | inconclusive: 103%

The list goes on.

Row | SMILES | binding response (% of control)
45 | COc1ccc(CCNC(=O)COC(=O)c2ccc(N3CCCC3=O)cc2)cc1OC | inconclusive: 108%
46 | O=C(O)c1ccc(N2C(=O)CC(N3CCC(c4nc5ccccc5[nH]4)CC3)C2=O)cc1 (stereo unspecified) | inconclusive: 106%
47 | O=C(CCNC(=O)c1ccccc1Cl)Nc1nnc(C2CC2)s1 | inactive: 102%
48 | COc1ccc(C(=O)N/N=C\c2coc3ccccc3c2=O)cc1 | inconclusive: 62.5%
49 | COc1ccccc1-c1nc(C#N)c(N2CC(C)CC(C)C2)o1 (stereo unspecified) | inconclusive: 96.5%
50 | O=C(Nc1ccc(F)cc1)N1CCCN(c2ccc(C(F)(F)F)cn2)CC1 | inconclusive: 49.1%
51 | N#C/C(=C\c1c(F)cccc1Cl)c1nn(-c2ccccc2)c(-n2cccc2)c1C#N | inconclusive: 114%
52 | O=C(CSc1ncn[nH]1)Nc1ccc(S(=O)(=O)Nc2ncccn2)cc1 | inactive: 101%
53 | CCOC(=O)C(=CNc1ccc2c(c1)c1ccccc1n2CC)C(=O)OCC | inconclusive: 65.5%
54 | Cc1ccc(N2C(=O)c3cccc4c([N+](=O)[O-])ccc(c34)C2=O)c2cccnc12 | inconclusive: 104%
55 | O=C(CC1C(=O)NCCN1Cc1ccc(Cl)c(F)c1)NCC1CCOCC1 (stereo unspecified) | inconclusive: 110%
56 | O=C(N/N=C/c1cccc(NC(=O)c2ccc(Cl)cc2)c1)c1cccc(O)c1 | inconclusive: 100%
57 | CCOc1cc(S(=O)(=O)n2ccnc2)ccc1Cl | inactive: 105%
58 | Cc1c(N=Cc2ccc[nH]2)c(=O)n(-c2ccccc2)n1C | inactive: 106%
59 | O=C(c1ccc([N+](=O)[O-])cc1Cl)N1CCN(c2ccccn2)CC1 | inconclusive: 109%
60 | CCOC(=O)NC(=O)/C(C#N)=C\NNc1ncc(C(F)(F)F)cc1Cl | inconclusive: 116%
61 | CCN(CC)CCC(c1ccc2c(c1)OCO2)c1c(OC)cc(OC)c2ccc(=O)oc12 (stereo unspecified) | inconclusive: 102%
62 | Cc1nc2sc(C(c3ccccc3)N3CCN(C(=O)c4ccco4)CC3)c(O)n2n1 (stereo unspecified) | inactive: 103%
63 | CCOc1cc(N2CCOCC2)c(OCC)cc1NCC(=O)N1CCN(Cc2ccccc2)CC1 | inconclusive: 106%
64 | C/C=C(\C)C(=O)Nc1cccc(C2=NOC3(C2)C[C@H](C(N)=O)N(C(=O)c2cc([N+](=O)[O-])cc([N+](=O)[O-])c2)C3)c1 (stereo partly specified) | inconclusive: 98.5%
65 | COc1ccc(C2c3c(-c4ccccc4O)n[nH]c3C(=O)N2Cc2ccco2)cc1 (stereo unspecified) | inconclusive: 98.7%
66 | Cc1cc(C)n2nc(C(=O)Nc3ccn(Cc4ccccc4C)n3)cc2n1 | inconclusive: 93.9%

Row | SMILES | binding response (% of control)
67 | CN1CCN(C2=C(Cl)C(=O)N(C3CCCCC3)C2=O)CC1 | inactive: 103%
68 | CSc1nc(C(=O)N2CCCC(C(=O)c3ccc(Cl)cc3)C2)cs1 (stereo unspecified) | inactive: 85.7%
69 | COc1ccc(-c2cc(C(F)(F)F)n3nc(C(=O)Nc4c(C)n(C)n(-c5ccccc5)c4=O)c(Cl)c3n2)cc1 | inconclusive: 104%
70 | COc1ccc(C(=O)C2CCCN(Cc3ccc4c(c3)OCCO4)C2)cc1F (stereo unspecified) | inconclusive: 114%
71 | Cc1ccc(S(=O)(=O)N(CCCO)CC(O)CON=C2c3ccccc3-c3ccccc32)cc1 (stereo unspecified) | inactive: 101%
72 | CC(C)(C)C1CCC(=NNC(=O)C(=O)NCc2ccco2)CC1 (stereo unspecified) | inactive: 96.1%
73 | COc1cc(Cn2c(-c3ccc(O)c(OC)c3)nc3ccccc32)ccc1O | inconclusive: 107%
74 | CC(C)(/C=N/O)/[N+]([O-])=C/c1ccccc1 | inconclusive: 121%
75 | Cc1ccc2cc3cc(C(=O)N4CCN(C(=O)c5ccco5)CC4)sc3nc2c1 | inactive: 100%
76 | Cc1ccc(NC(=O)CSc2nc(N)cc(=O)[nH]2)cc1S(=O)(=O)N1CCOCC1 | inconclusive: 198%
77 | O=Cc1cccn1-c1cccnc1 | inactive: 96.6%
78 | O=C(/C=C\Nc1ccc(S(=O)(=O)Nc2ncccn2)cc1)c1ccccc1 | inconclusive: 96.8%
79 | O=C(NCC(=O)N(CC1CCCO1)C(C(=O)NC1CCCCC1)c1ccc(F)cc1)c1ccco1 (stereo unspecified) | active: 237% [activator]
80 | O=C1NC2(CCCCC2)C(=O)N1Cc1cccc(C(F)(F)F)c1 | inactive: 89.8%
81 | COC(=O)c1scc(S(C)(=O)=O)c1-n1cccc1 | inconclusive: 124%
82 | Cc1ccc(NC(=O)COC(=O)[C@@H]2CCCN2C(=O)c2cccs2)cc1S(=O)(=O)N(C)C | inconclusive: 137%
83 | CCOC(=O)c1[nH]c2ccccc2c1NC(=O)NC(C)C | inconclusive: 100%
84 | CCc1nnc(NC(=O)Cc2cc(OC)c(OC)c(OC)c2)s1 | inactive: 100%
85 | CC(C)n1c(O)c(N=NC(=O)CNC(=O)CCc2ccccc2)c2ccccc21 | inconclusive: 90.2%
86 | CCSc1nnc(NC(=O)CSc2nc3c(c(=O)n2-c2ccccc2)SCC3)s1 | inactive: 102%
